# From the supplement of paper PMC3334620
# Whole data set: some 33,000 sequences, median “E-score (-0.5 to 0.5)” near -0.0014, cut for the highest 2% near 0.25. This is one part of the list.
# Target: T1, Cad1 (UniProt P24813)
# T1 sequence: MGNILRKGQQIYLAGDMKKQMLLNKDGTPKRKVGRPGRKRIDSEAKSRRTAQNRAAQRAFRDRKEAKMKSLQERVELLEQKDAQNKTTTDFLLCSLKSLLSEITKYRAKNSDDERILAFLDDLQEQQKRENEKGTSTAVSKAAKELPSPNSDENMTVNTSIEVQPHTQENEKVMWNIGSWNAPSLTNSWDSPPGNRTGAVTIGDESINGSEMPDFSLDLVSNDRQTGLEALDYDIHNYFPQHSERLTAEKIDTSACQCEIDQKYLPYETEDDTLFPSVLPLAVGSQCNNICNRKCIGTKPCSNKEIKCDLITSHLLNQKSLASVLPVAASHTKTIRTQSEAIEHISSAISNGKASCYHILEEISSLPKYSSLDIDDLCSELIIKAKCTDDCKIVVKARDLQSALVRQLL
# Assay: PBM E-score (8-mer binding enrichment) (E-score (-0.5 to 0.5)); higher = stronger / more preferred TF binding
# Settings: protein concentration: 100 nM; construct: GST-full length
# Summary of the method: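 Full-length yeast transcription factors or their DNA-binding domains, GST-tagged and expressed with PURExpress, were applied at about 100-200 nM to universal all-10-mer Agilent arrays. These arrays had been made double-stranded by primer extension on fresh or once-stripped slides. Detection used fluorescent anti-GST, normalisation used masliner, and E-scores for ungapped eight-base words pooled with reverse complements came from the Universal PBM Analysis Suite.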
row,Sequence,PBM E-score
1,CATCATTC,0.0927
2,CCAGAATC,0.0559
3,GCTCTAAC,-0.137
4,ATTCTGAC,0.00765
5,CACTGAGG,-0.118
6,CATGGGGC,-0.0704
7,GCAGCCAA,0.0102
8,CAGAAGTA,0.0907
9,CTCGGCTC,-0.0411
10,TCAACCCA,0.00685
11,AGGTAAGC,0.102
12,ATGAGTGA,0.0719
13,CTCGCTAC,-0.142
14,CCAAGGGG,-0.115
15,GATAGTGA,0.157
16,AAGATGAG,-0.147
17,GAGCTAGC,0.137
18,AAGAGCAC,0.0293
19,CCACGCGA,0.038
20,GAGCCATA,-0.0447
21,AAACCATA,-0.0247
22,CGTGTCGC,0.0209
23,CACACTGG,0.0121
24,AGAAGCGA,-0.0529
25,CAATCAGA,-0.227

# Reformatted tab-delimited: entries from further up.
row	Sequence	PBM E-score
5	CACTGAGG	-0.118
19	CCACGCGA	0.038

# As a short view, part of the list above.
row,Sequence,PBM E-score
19,CCACGCGA,0.038
20,GAGCCATA,-0.0447

# Next part

row,Sequence,PBM E-score
1,ACAGTCAG,0.124
2,CACCAACC,0.0405
3,ACAATTAA,0.148
4,CATGGATA,0.0404
5,GCGAAAAC,-0.0371
6,AACACTTA,-0.0762
7,AATAACGT,0.112
8,CGGGAGTC,0.0153
9,CGTTAACA,0.198
10,ATAACAGG,-0.0342
11,ACTTTACT,0.0633
12,ACGGAGCA,-0.0644
13,GAGATCGA,0.0874
14,GCTGACCC,-0.145
15,ACGATCAA,0.00497
16,CAACTGGC,-0.089
17,CCTCCACC,-0.282
18,TAGTAGAA,0.0754
19,ATTGTAGA,0.0701
20,GGGCTTAA,-0.0694
21,GCGGCGAA,-0.0495
22,AGGGTAGG,-0.015
23,AGTGGTTA,-0.0534
24,CCATACGC,0.0527
25,AAGCCTTA,-0.116

# Looked up one by one from the entries so far, four records:
row,Sequence,PBM E-score
11,ACTTTACT,0.0633
7,AATAACGT,0.112
23,AGTGGTTA,-0.0534
9,CGTTAACA,0.198

# (further entries)

row,Sequence,PBM E-score
1,AAAGACTG,-0.16
2,GTCGTGCA,0.0244
3,AGTTATTC,0.116
4,ATACAGTG,0.0241
5,ACTTGGTA,0.0965
6,CTGGGGAC,-0.367
7,GGGGTACC,-0.38
8,ATTTACCG,0.0146
9,GTCCGGTA,-0.0206
10,CGTATTTC,0.162
11,CATATGCG,0.0103
12,AACCTCAA,-0.0446
13,GGCTCTTA,-0.143
14,GTACCAAA,-0.018
15,GGGTTGTA,-0.0992
16,CGAGGACG,0.052
17,ATGGATCC,0.0803
18,GATTCGAC,-0.0892
19,ATGGGGTA,0.0733
20,TCGGAAGA,-0.114
21,TCCATCGA,0.0896
22,TGCGCGAA,0.244
23,CAATACCA,0.126
24,TCTACTAA,0.0958
25,GGTAGAGA,0.0486

row,Sequence,PBM E-score
1,AAATCGCG,0.137
2,CTCATCTC,0.14
3,GCGCGCAC,0.218
4,CGGTGACG,0.00864
5,GGCATGAC,-0.0834
6,TACTAATA,0.285
7,ATAACTAT,0.0761
8,CGTGTGTA,0.0544
9,CACTTTTA,-0.0571
10,AATGCGTG,0.0367
11,AATCCGGA,0.306
12,CGCCTCAA,-0.122
13,ACGCCGCC,-0.223
14,AGTGAGTA,0.201
15,AACGCGAA,0.298
16,GTCGAGTA,0.0726
17,GTTAGACA,0.23
18,AAAAAGGT,-0.0335
19,AAGTAACA,0.0629
20,GCCTTGAC,-0.0488
21,CCGCTGAA,0.0611
22,CCTGCTCA,-0.147
23,ACTACGAG,-0.137
24,ACTCATAC,0.149
25,CTTAGACA,-0.076

row,Sequence,PBM E-score
1,AAGGTCTA,-0.163
2,AATCGCAT,0.0873
3,TATTTGAA,0.101
4,CCAACACA,0.0731
5,ATTGAAGC,0.0235
6,CCTTAGCG,0.072
7,GCCCAGAA,-0.0791
8,CTAGTAGC,-0.0333
9,CCAGCGGC,-0.0709
10,CGGAGGCA,-0.0295
11,CGACAGAC,-0.0603
12,GTAACTAC,0.17
13,AAATCTCT,-0.00298
14,GCGCCTTA,0.192
15,AACCACAA,0.00676
16,CGAAGCCA,-0.0254
17,AGGTACAA,0.03
18,ATTCCGAC,-0.0345
19,AACTGAGG,0.0639
20,GGTGAACA,-0.154
21,AATGACTG,0.0578
22,AGCAATTA,0.0458
23,CCTGGACG,-0.0668
24,AACTAGGT,0.0673
25,ACGTTCCA,0.0384

row,Sequence,PBM E-score
1,ACGCAATC,0.0413
2,CTTGGCTA,0.134
3,ATGCCGAA,0.0888
4,ACGTTGCA,0.0237
5,GAAGACGA,-0.0447
6,ATTCGAAT,0.132
7,CCACCCTC,0.0947
8,CCCAGGAA,-0.104
9,GACCCCGC,-0.0512
10,ACTATTTG,0.101
11,AGTGGACG,0.0569
12,AACCTGTA,-0.019
13,CAAAGGAA,0.0936
14,AAGTCTAT,-0.191
15,CATTTGGG,-0.0702
16,CTGGGGTC,-0.164
17,CGCTATTA,0.253
18,AGGTATCG,0.161
19,CGTTGTAG,0.111
20,AACGCTTA,0.021
21,TATGCGAA,0.161
22,AAGAGGTA,-0.0197
23,GACATCTC,0.0236
24,ACCGTCAC,-0.176
25,CTTAGGCA,-0.00969

row,Sequence,PBM E-score
1,CATGTAAC,0.0311
2,TAGAGTGA,-0.0446
3,CCCCACTC,-0.201
4,AGCTGGCG,-0.231
5,ACCTGCTC,-0.0212
6,ACCAGATA,0.208
7,AGACTAAT,0.00954
8,CACCAATA,-0.0376
9,CGCACGTC,-0.0553
10,GCAATTCA,0.0205
11,GAGCCGTA,0.203
12,TAGCCAAA,-0.00044
13,ATATTGCA,0.108
14,TGACCCAA,0.13
15,CTCTAGTC,-0.388
16,ATTATACC,0.1
17,CCTAGCGC,0.0836
18,AACACACT,0.165
19,CAACCGTC,-0.00819
20,ACTTTCAC,0.0546
21,GCCTTCAA,0.0307
22,ATATCGCC,0.0776
